# Primary screen of a compound library

Amino acid sequences for entries named in this document (tags omitted).
UniProt E9BF75, entry or part of it: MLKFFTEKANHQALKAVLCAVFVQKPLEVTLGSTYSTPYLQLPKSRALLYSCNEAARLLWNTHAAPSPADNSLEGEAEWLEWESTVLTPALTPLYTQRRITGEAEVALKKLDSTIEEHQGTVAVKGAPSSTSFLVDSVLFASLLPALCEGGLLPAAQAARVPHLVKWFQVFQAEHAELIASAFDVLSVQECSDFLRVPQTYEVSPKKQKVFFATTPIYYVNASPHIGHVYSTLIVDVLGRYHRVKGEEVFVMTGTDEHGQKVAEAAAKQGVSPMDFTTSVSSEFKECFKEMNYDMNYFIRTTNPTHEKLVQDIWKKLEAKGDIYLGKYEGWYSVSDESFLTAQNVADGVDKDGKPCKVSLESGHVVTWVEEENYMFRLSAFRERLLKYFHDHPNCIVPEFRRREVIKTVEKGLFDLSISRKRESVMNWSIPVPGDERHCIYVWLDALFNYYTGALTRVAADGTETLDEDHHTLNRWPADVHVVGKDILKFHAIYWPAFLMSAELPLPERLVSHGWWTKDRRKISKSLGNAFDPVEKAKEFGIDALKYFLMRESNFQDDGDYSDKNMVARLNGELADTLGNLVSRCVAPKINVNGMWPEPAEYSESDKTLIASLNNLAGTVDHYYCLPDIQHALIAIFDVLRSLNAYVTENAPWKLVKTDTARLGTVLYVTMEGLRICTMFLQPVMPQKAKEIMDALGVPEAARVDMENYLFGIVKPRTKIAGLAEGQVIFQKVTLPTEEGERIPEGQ

From ChEMBL document CHEMBL3988442, “University of Dundee, Small-Polar-MMV Screening Library” (2021).

All values are in %.
The controls that fix the scale are not given in the record; negative values are as filed.
This is an unselected part of the compounds tested.

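Primary screen of methionyl-tRNA synthetase; the read-out is not stated. Target: Methionyl-tRNA synthetase (putative), Leishmania donovani (UniProt E9BF75). The test concentration is not given. Values are per cent inhibition. Of about 68,000 compounds tested this way, about 24 (0.035%) reached 50% or more in at least one test.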

SMILES	inhibition
CSCCC(=O)NS(=O)(=O)c1ccc2c(c1)OCCO2	9.399
N#Cc1cccnc1N1CCC(Nc2ccccc2)C1 (stereo not shown)	17.78
CCn1nc2c(cc1=O)CN(CC(=O)N(C)c1nccs1)CC2	8.982
CCOc1ccc(C(=O)Nc2c(C)nc3ccccn3c2=O)cc1	11.66
O=C(NS(=O)(=O)Cc1ccc(F)cc1)C1CCc2ccccc21 (stereo not shown)	15.73
Cn1cccc1C(=O)N1C[C@H]2CN(CC3CC3)C(=O)[C@H]2C1	7.283
Cc1occc1-c1nc(NC2CCCC2)ncc1-c1ccccn1	6.771
CN1C(=O)CC(c2ccccc2)C12CCN(CC1CCOCC1)CC2 (stereo not shown)	14.57
c1cc(CN2CCO[C@H]3[C@H](OCCN4CCCC4)CC[C@@H]32)co1	5.205
CS(=O)(=O)N1C[C@@H]2CC[C@H](C1)N(C(=O)CCc1n[nH]c3c1CCCC3)C2	13.54
Cc1ccn(CCC(=O)NC(C)Cc2ccco2)n1 (stereo not shown)	7.726
COc1ccc(NC(=O)CNc2ccc(Br)cc2F)cc1	8.451
COCCNc1nnc(-c2cnc(C)cn2)s1	0.6329
CCC(C)NC(=O)CCn1ccc(C)n1 (stereo not shown)	13.91
CCCc1noc(CN2CCCC2c2ccsc2)n1 (stereo not shown)	0.4695
CSCCCN1C[C@H]2CC[C@@H]1CN(Cc1[nH]cnc1C)C2	12.06
CCCc1noc(C(C)N2CCN(c3ccc(C#N)cn3)CC2)n1 (stereo not shown)	10.82
c1coc(CN2CCO[C@H]3[C@@H](OCC4CC4)CC[C@@H]32)c1	8.242
COc1ccc(/C=C/CN2CCN(c3ncccc3C(N)=O)CC2)cc1	16.19
COc1ccc(CN(Cc2nc(C)no2)C2CCCCC2)cc1OC	16.67
O=C(Cc1ccc2c(c1)OCC2)Nc1nc[nH]n1	17.62
O=C(c1ncccn1)N1C[C@H]2CCC[C@@]2(COc2ccccn2)C1	3.922
COCC(O)CN(C)C(=O)NC1CCN(Cc2ccccn2)CC1 (stereo not shown)	5.263
CCOCc1ncn2c1CN(S(=O)(=O)c1cccs1)CCC2	8.148
CN(C)C(=O)c1ccccc1NC(=O)N(C)Cc1ccccc1O	5.017
CC(NCc1cccc(S(=O)(=O)N(C)C)c1)c1cccnc1 (stereo not shown)	0.8357
COc1cc(-c2cc(-c3ccn(C)c3)nc(N)c2C#N)cc(OC)c1O	12.14
CC(C)c1cc(CSCCC(=O)O)no1	-0.2703
Cc1ccc2c(c1)C1(CC2)CCN(c2nncs2)CC1	17.5
CCOC1Sc2nnc(C)n2N=C1c1ccc(Cl)cc1 (stereo not shown)	22.63
Cc1ccc(C(=O)Nc2ccccc2N2CCCC2)n1C	2.88
COC(=O)CCNC(=O)C1CC(=O)N(C2CCCC2)C1 (stereo not shown)	11.43
COc1ccc(C(=O)C2CCCN(c3nccc(N)n3)C2)c(C)c1 (stereo not shown)	10.78
CC(=O)N1CCN(C(=O)CCCc2nnc(-c3ccccc3)o2)CC1	18.07
CCc1cnc(CN(C(C)=O)C2CCN(CCN3CCCCC3)C2)o1 (stereo not shown)	19.27
CN(C)CCN1CCO[C@H]2CN(C(=O)N(C)C)C[C@H]21	5.797
CN(Cc1ccco1)C(=O)C1CSCN1C(=O)c1cccs1 (stereo not shown)	12.5
Cc1n[nH]cc1CNc1ccc2c(c1)CN(C(=O)OC(C)(C)C)CC2	12.6
CN1CCC(N(C)C(=O)c2cnc3c(cnn3C3CCCC3)c2)CC1	17.78
CCn1ncc2c1CCCC2NCc1ccc2c(c1)CCO2 (stereo not shown)	14.04
COc1ccc(C)cc1CN(C)CC(N)=O	12.01
CC(NCc1ccsc1)c1ccc(OCc2nccn2C)cc1 (stereo not shown)	9.524
CCc1cc(N(C)CCc2c(C)n[nH]c2C)ncn1	9.375
Cc1noc(C)c1-c1cncc(C2CCCN2Cc2nccs2)n1 (stereo not shown)	17.48
CN(C)C[C@H]1C[C@H](CO)CN(C(=O)c2cc(S(N)(=O)=O)ccc2F)C1	8.906
COCCn1cnc2ccc(NC(=O)c3ccc(OC)cc3)cc2c1=O	17.54
CCS(=O)(=O)CC(=O)NC(C)c1ccc(F)cc1F (stereo not shown)	8.239

Once more, the final 5:

{"smiles": "CCc1cc(N(C)CCc2c(C)n[nH]c2C)ncn1", "inhibition": 9.375}
{"smiles": "Cc1noc(C)c1-c1cncc(C2CCCN2Cc2nccs2)n1", "stereo": "stereo not shown", "inhibition": 17.48}
{"smiles": "CN(C)C[C@H]1C[C@H](CO)CN(C(=O)c2cc(S(N)(=O)=O)ccc2F)C1", "inhibition": 8.906}
{"smiles": "COCCn1cnc2ccc(NC(=O)c3ccc(OC)cc3)cc2c1=O", "inhibition": 17.54}
{"smiles": "CCS(=O)(=O)CC(=O)NC(C)c1ccc(F)cc1F", "stereo": "stereo not shown", "inhibition": 8.239}